Measured values taken from PubChem BioAssay AID1117319 (Southern Research Institute, 2015).
Out of some 260,000 compounds screened, about 1,500 (0.58%) were called active. Inconclusive results, whose numbers are uncertain, are shown with a selection of clear calls.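 Rule for the calls: active = inhibition above a set limit at one or more doses, reproduced on every date tested; inconclusive = results disagree between test dates, or hit never tested in dose response; inactive = the rest.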

By UniProt entry, the sequences of proteins in these tests, tags left out. Where a name states a change or a piece, a line headed by the entry shows the natural chain unless it says otherwise.
UniProt P69720: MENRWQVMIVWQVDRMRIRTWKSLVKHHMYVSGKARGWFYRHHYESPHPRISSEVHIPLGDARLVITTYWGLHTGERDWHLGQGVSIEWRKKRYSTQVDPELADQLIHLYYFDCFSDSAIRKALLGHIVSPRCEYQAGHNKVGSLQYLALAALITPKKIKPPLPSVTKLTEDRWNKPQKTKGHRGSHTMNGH
UniProt P69721: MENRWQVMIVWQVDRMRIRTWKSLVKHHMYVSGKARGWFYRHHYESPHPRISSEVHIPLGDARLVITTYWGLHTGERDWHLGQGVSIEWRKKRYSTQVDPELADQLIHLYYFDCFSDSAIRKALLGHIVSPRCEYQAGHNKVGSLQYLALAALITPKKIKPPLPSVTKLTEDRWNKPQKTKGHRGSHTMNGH
UniProt P69722: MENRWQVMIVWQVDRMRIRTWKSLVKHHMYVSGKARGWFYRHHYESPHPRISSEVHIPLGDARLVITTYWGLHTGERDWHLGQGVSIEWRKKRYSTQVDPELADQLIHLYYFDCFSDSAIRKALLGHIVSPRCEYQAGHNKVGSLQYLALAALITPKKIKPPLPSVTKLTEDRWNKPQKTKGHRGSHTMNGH
UniProt P69723: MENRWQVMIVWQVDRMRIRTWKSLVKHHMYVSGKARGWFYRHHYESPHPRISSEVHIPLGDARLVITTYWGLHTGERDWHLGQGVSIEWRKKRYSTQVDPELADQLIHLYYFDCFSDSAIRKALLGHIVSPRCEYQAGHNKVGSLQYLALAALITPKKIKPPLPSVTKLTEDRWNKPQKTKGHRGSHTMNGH
UniProt Q9HC16: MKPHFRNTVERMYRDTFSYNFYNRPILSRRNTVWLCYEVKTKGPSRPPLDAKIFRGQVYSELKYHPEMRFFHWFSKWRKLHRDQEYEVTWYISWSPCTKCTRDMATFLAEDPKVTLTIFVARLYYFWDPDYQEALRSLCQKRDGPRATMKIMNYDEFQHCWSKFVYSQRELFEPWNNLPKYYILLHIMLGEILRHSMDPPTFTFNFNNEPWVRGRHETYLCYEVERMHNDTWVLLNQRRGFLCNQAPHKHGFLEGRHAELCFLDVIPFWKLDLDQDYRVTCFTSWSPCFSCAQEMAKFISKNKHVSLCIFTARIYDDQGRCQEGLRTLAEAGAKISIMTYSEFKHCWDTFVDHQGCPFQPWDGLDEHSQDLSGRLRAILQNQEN

target: Virion infectivity factor (Human immunodeficiency virus type 1 group M subtype B (isolate BH10)) + Virion infectivity factor (Human immunodeficiency virus type 1 group M subtype B (isolate BRU/LAI)) + Virion infectivity factor (Human immunodeficiency virus type 1 group M subtype B (isolate PCV12)) + Virion infectivity factor (Human immunodeficiency virus type 1 group M subtype B (isolate HXB2)) + DNA dC->dU-editing enzyme APOBEC-3G (Homo sapiens) (UniProt P69720+P69721+P69722+P69723+Q9HC16); assay: inhibitors of Vif binding to APOBEC3G peptide, primary screen, biochemical, TR-FRET, GST-Vif 1-94, biotin-A3G peptide, dose response retest (AID 1117319); conditions: hits give high values;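 note: Vif residues 1-94 fused to GST binding biotinylated APOBEC3G peptide 110-148; 0% = full assay without inhibitor and 100% = GST in place of GST-Vif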

| SMILES | inhibition |
| --- | --- |
| COC(=O)C1=C(C(=O)OC)[C@@H]2Nc3ccccc3[C@@]23C[C@@H](C(=O)OC)N=C3N1 | inactive: 0.57% |
| COc1ccccc1CNC(=O)c1ccc(OC(C)C)cc1 | inactive: -1.85% |
| CC12CC3(C)CC(C)(C1)CC(C(=O)NC(=S)NC(C)(C)C)(C2)C3 | inconclusive: 39.1% |
| COc1cccc(NC(=O)COC(=O)c2cc(S(=O)(=O)N3CCOCC3)ccc2C)c1 | inconclusive: 42.6% |
| Cc1ccc(-c2nc(CS(=O)CC(=O)NCc3ccc(Cl)cc3)c(C)o2)cc1 (stereo not drawn) | inconclusive: 33% |
| CC(=O)NCCc1ccc(C(=O)COC(=O)c2cccn2C)cc1 | inactive: -0.53% |
| NC(N)=NC(N)=Nc1ccc(O)cc1 | inconclusive: 64.5% |
| O=C(c1cccc(F)c1)N1CCCC(C(=O)N2CCCC2)C1 (stereo not drawn) | inactive: -3.84% |
| CC1CCN(C(=O)CSc2nnc(-c3ccncc3)n2C)CC1 | inactive: 8.77% |
| CCOc1ccc2[nH]c(O)c(NC(C)=O)c2c1 | inconclusive: 34.2% |
| Cc1occc1C(=O)N1CCCc2ccccc21 | inconclusive: 28.1% |
| Cc1nc(C)c(C(=O)C2=C(O)C(=O)N(CCN3CCOCC3)C2c2cccs2)s1 (stereo not drawn) | inconclusive: 37.6% |
| COC(=O)c1ccc2c(c1)NC(=O)C(N1CCOCC1)S2 (stereo not drawn) | inconclusive: 38.8% |
| COc1ccc(-n2c(SCC(=O)Nc3ccc(C(=O)O)cc3)nnc2-c2cccs2)cc1 | inconclusive: 62.5% |
| S=c1[nH]cnc2sc(Nc3ccccc3)nc12 | inconclusive: 41.1% |
| N#CC1=C(N)Oc2c(oc(CO)cc2=O)C1c1cccs1 (stereo not drawn) | inactive: 26.6% |
| NC(=O)NOCc1ccc(Cl)cc1Cl | inconclusive: 35.4% |
| OCCC1CN(Cc2nc(-c3ccccc3)cs2)CCN1Cc1ccc(F)cc1 (stereo not drawn) | inconclusive: 48.9% |
| Clc1cccc(CON/C=N/c2ncnc3sccc23)c1 | inactive: -6.38% |
| CCOC(=O)C1(c2csc(N)n2)COC(=O)C1 (stereo not drawn) | inconclusive: 41.5% |

| SMILES | inhibition |
| --- | --- |
| Cc1ccc(C(=O)NCC(C)(C)O)cc1 | inconclusive: 35.6% |
| COC(=O)c1ccc(NC(=O)CSc2nc3ncccc3[nH]2)cc1 | inconclusive: 44.8% |
| N#C/C(=C\c1ccc(N2CCOCC2)cc1)c1ccccc1 | inconclusive: 34.6% |
| O=S(=O)(NCCc1cn2ccccc2n1)c1ccc(F)c(C(F)(F)F)c1 | inconclusive: 33.2% |
| O=C(N/N=C/c1cc([N+](=O)[O-])ccc1O)NC12CC3CC(CC(C3)C1)C2 | inconclusive: 56.5% |
| COc1ccccc1/C=C/C(=O)Oc1cccc2cccnc12 | inconclusive: 46.5% |
| COCCN(C(=O)CCC(=O)Nc1ccccn1)C(C(=O)NC1CCCC1)c1ccc(OC)cc1 (stereo not drawn) | inconclusive: 55.5% |
| CCn1c(C)nc2cc(C(=O)N/N=C/c3cccc(O)c3O)ccc21 | inconclusive: 62.8% |
| Cc1ccc(SCc2c(C(=O)N/N=C/c3ccc(C)o3)nnn2-c2nonc2N)cc1 | inactive: -4.93% |
| C/C(=N/NC(=O)CNC(=O)c1ccccn1)c1cccc([N+](=O)[O-])c1 | inconclusive: 43.8% |
| CC(=O)N(C1=C(N2CCOCC2)C(=O)c2ccccc2C1=O)c1ccc(C(=O)O)cc1 | inactive: 14.4% |
| COc1ccc(-c2csc3nc(C)nc(N4CCN(C(C)=O)CC4)c23)cc1OC | inactive: -6.79% |
| Cc1ccc(/C=C/C(=O)NCc2ccco2)o1 | inconclusive: 48.3% |
| CCC(=O)Nc1cc(C(=O)O)ccc1Sc1ccc(Cl)cc1 | inconclusive: 35.3% |
| Cc1cc(C)cc(NC(=O)NC(C)C2CCCO2)c1 (stereo not drawn) | inconclusive: 49.7% |
| O=C(O)CSc1nnc(COc2cccc3ccccc23)n1Cc1ccccc1 | inconclusive: 38.5% |
| CCn1c(SCC(=O)Nc2ccc3c(c2)OCO3)nnc1-c1ccccc1O | inconclusive: 61.9% |
| CCOc1ccc(C(=O)Nc2cccc(-c3nc4ccccc4[nH]3)c2C)cc1[N+](=O)[O-] | inconclusive: 43% |
| Cc1cc(=O)[nH]c(N/N=C2/CCCC/C2=C\c2ccccc2)n1 | inconclusive: 44.7% |
| Cc1ccccc1NC(=O)Cn1c(O)c(N=NC(=O)c2ccccc2O)c2ccccc21 | inconclusive: 61.9% |

| SMILES | inhibition |
| --- | --- |
| Cc1ccccc1NC(=S)/C(=C(\[O-])c1cc(C)n(Cc2ccccc2Cl)c1C)[n+]1ccccc1 | inconclusive: 50.1% |
| O=P(OCC1CC1)(c1ccccc1)c1ccccc1 | inconclusive: 37.8% |
| Nc1nc2n(n1)C(c1ccco1)CC(c1ccc(Cl)cc1)N2 (stereo not drawn) | inconclusive: 38.4% |
| CC1C/C(=C/c2ccncc2)C(=O)/C(=C/c2ccncc2)C1 (stereo not drawn) | inactive: 25.8% |
| CC(=O)Nc1ccc(S(=O)(=O)/N=C2/NC(=O)/C(=C\c3ccco3)S2)cc1 | inconclusive: 63.3% |
| CCC(C)Oc1cccc(C(=O)Nc2ccccc2N2CCOCC2)c1 (stereo not drawn) | inconclusive: 17% |
| CCOC(=O)C1=C(Cc2ccc(OC)cc2)C(=O)c2ccccc2C1=O | inactive: 24.3% |
| O=C(NC1CCCC1)c1cnn2c(C(F)(F)F)cc(-c3ccco3)nc12 | inconclusive: 33.3% |
| Nc1c(Cl)ncnc1N/N=C/c1ccc2ccccc2n1 | inconclusive: 45.1% |
| CC(C)C(=O)NC(c1ccccc1)c1cc([N+](=O)[O-])c2cccnc2c1O (stereo not drawn) | inconclusive: 51.2% |
| COc1ccc(/C=N/OCC(=O)Nc2nc3ccccc3s2)cc1 | inconclusive: 45% |
| COc1ccc(N=C/C=C2\C=C(c3ccccc3)OC(C)(C)O2)cc1 | inconclusive: 33.6% |
| COc1ccc(N2CCN(c3oc(-c4ccco4)nc3C#N)CC2)cc1 | inconclusive: 61% |
| Cc1nnsc1C(=O)N/N=C/c1ccc2ccccc2c1O | inconclusive: 46.2% |
| O=C(Cn1cc([N+](=O)[O-])cn1)NCCc1nc2ccccc2[nH]1 | inconclusive: 51.9% |
| CC(C)NC(=O)c1ccc(CNC(=O)OCC(F)(F)F)cc1 | inconclusive: 39.9% |
| N#CC1=C(N)N(c2ccccc2)C(c2cccc([N+](=O)[O-])c2)C1(C#N)C#N (stereo not drawn) | inconclusive: 55.5% |
| COc1cccc(S(=O)(=O)NCc2ccc(C(=O)NCC3CCCO3)cc2)c1 (stereo not drawn) | inconclusive: 59.3% |

Pulled by structure from above:

| SMILES | inhibition |
| --- | --- |
| CCOC(=O)C1=C(Cc2ccc(OC)cc2)C(=O)c2ccccc2C1=O | inactive: 24.3% |
| CC1C/C(=C/c2ccncc2)C(=O)/C(=C/c2ccncc2)C1 (stereo not drawn) | inactive: 25.8% |
| O=P(OCC1CC1)(c1ccccc1)c1ccccc1 | inconclusive: 37.8% |
